Source: US6924309B2 (Children, Youth and Women's Health Service Incorporated, priority 1999, dated 2005)
Some results were stated once for a whole list of compounds, not compound by compound.

Test: Stability of thia fatty acids and sulfides as thin film under oxygen (1H NMR)
Format: physicochemical
Conditions: darkness, up to six weeks
Description: Compounds 110 (4.3 mg) and 106 (6 mg) were each dissolved in 5 ml of dichloromethane and added into 250 ml one-neck flasks. Compound 18 (20 mg) and compounds 19, 108, 109 and 111-112 (14-20 mg) were each dissolved in 10 ml of dichloromethane and added into 500 ml flasks. The solvent dichloromethane was then evaporated with continuous rotation of the flasks, allowing the compounds to form thin films. The flasks were flushed with oxygen, sealed and kept in darkness. The compounds in the flasks were redissolved in chloroform-d and analysed by ^1H NMR every two weeks for up to six weeks.
To examine possible reasons for this lack of antioxidative activity, the chemical stability of compounds 18 and 109 in the absence of arachidonic acid was investigated. For comparison, the stability of compounds 19, 106, 108 and 110-112 was also examined. Each compound was studied as a thin film under oxygen as described above. Samples were removed and analysed by ^1H NMR spectroscopy regularly for up to six weeks. […] This is consistent with compound 109 decomposing in the presence of arachidonic acid, but not alone.

Chemical stability in the absence of arachidonic acid, stable:
CCCCC/C=C\C/C=C\C/C=C\C/C=C\CCCCSCCC(=O)O [Compound 19]
CC/C=C\C/C=C\CCSCCC(=O)O [Compound 106]
CCCCCCCCCCCCCCSCCC(=O)O [Compound 108]
CCCCCCCCCCCCCCSCC(=O)O [Compound 109, 2-Tetradecylthioacetic acid]
CCCCC/C=C\C/C=C\C/C=C\C/C=C\CCCCSCCC [Compound 110, propyl(all-Z)-eicosa-5,8,11,14-tetraenylpropyl sulfide]
CCCCCCCCCCCCCCSCCC [Compound 111, propyltetradecyl sulfide]
CC/C=C\C/C=C\C/C=C\CCCCCCCCSCCC(=O)O [Compound 112, 3-[(Z,Z,Z)-(octadeca-9,12,15-trienylthio)]-propionic acid]
